In PubChem BioAssay AID2417 (National Center for Advancing Translational Sciences (NCATS), 2010):
Out of some 140,000 compounds screened, about 4,300 (3.1%) were called active. The shares of active, inactive and inconclusive entries below differ from those in the screen.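 How the source made its calls: active means readout at or below -70, meaning at least 70% loss of cells showing the perinucleolar compartment, a nuclear body marking cancer cells; inconclusive means readout between -30 and a set limit; inactive means the rest.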

Assay: High Content Assay for Compounds that inhibit the Assembly of the Perinucleolar Compartment;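 further: plate controls were DMSO wells for no effect and camptothecin positive control wells for full effect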
Conditions: PC3M PTB-GFP, PNC prevalence imaging, 16 h; at 10 µM; hits give low values
Outline: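 Compounds are pinned in duplicate onto adhered PC3M cells stably expressing GFP-tagged PTB and incubated 16 h at 37 C. Cells are then fixed, nuclei stained with Hoechst, and PNC-positive cells counted.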

Q: For Cc1[nH]ccc(=O)c1OCc1ccc(Cl)cc1, which activity change (PNC), negative = inhibition is on record?
A: active: -124%

Q: With CC(=O)N/C(=C\c1ccccc1)C(=O)OCC(=O)N1CCCCCC1 as the compound, how does the activity change (PNC), negative = inhibition read?
A: inconclusive: -49.2%

Q: Which activity change (PNC), negative = inhibition does the source give for N#CCN1CCN(CCC(=O)Nc2ccc(OCc3ccccc3)cc2)CC1 here?
A: inconclusive: -47.4%

Q: For O=C(CS(=O)c1ccc(C(F)(F)F)cc1[N+](=O)[O-])Oc1ccc(Cl)cc1 (configuration not stated), which activity change (PNC), negative = inhibition is on record?
A: inconclusive: -48.2%

Q: For O=C(Nc1cccc2ccccc12)/C(=C/c1ccc([N+](=O)[O-])cc1)NC(=O)c1ccccc1, which activity change (PNC), negative = inhibition is on record?
A: inactive: 14.7%

Q: For O=C(Cn1c(NCCO)nc2ccccc21)c1ccco1, which activity change (PNC), negative = inhibition is on record?
A: inactive: -18.7%

Q: For Cc1cccc(C)c1NC(=O)C1C2C=CC(C2)C1C(=O)NCc1ccccn1 (configuration not stated), which activity change (PNC), negative = inhibition is on record?
A: inconclusive: -43.7%

Q: For CCOC(=O)c1c(C)c(C(=O)Nc2ccccc2)c(C)n1CC, which activity change (PNC), negative = inhibition is on record?
A: inconclusive: -62.9%

Q: With CC(NS(C)(=O)=O)C(c1cccs1)N1CCN(c2ccccc2)CC1 (configuration not stated) as the compound, how does the activity change (PNC), negative = inhibition read?
A: inconclusive: -51.7%

Q: Which activity change (PNC), negative = inhibition does the source give for CCN(CC)S(=O)(=O)c1ccc(O)c(C(=O)OCC(=O)N(C)Cc2ccccc2)c1 here?
A: inactive: 11.8%

Q: For Cc1c(C(=O)NC2CCCc3ccccc32)oc2ccccc12 (configuration not stated), which activity change (PNC), negative = inhibition is on record?
A: inconclusive: -35.3%

Q: Which activity change (PNC), negative = inhibition does the source give for O=C(Cc1cccs1)N/N=C/c1ccc(OCc2ccccc2)cc1 here?
A: inconclusive: -64.7%

Q: With ON1C(c2ccc(Cl)cc2Cl)N(O)[C@H]2CCCC[C@H]21 (some centres not stated) as the compound, how does the activity change (PNC), negative = inhibition read?
A: inconclusive: -39.4%

Q: With O=C(CSc1nnc(-c2ccncc2)n1Cc1ccco1)OC1CCCCC1 as the compound, how does the activity change (PNC), negative = inhibition read?
A: inconclusive: -43.9%

Q: For CC1Cc2ccccc2N1c1nc(C2CC2)nc2c1nnn2Cc1ccccc1 (configuration not stated), which activity change (PNC), negative = inhibition is on record?
A: inconclusive: -57%

Q: For COc1ccc(C(=O)NNC(=O)Cc2ccc(-c3ccccc3)cc2)cc1OC, which activity change (PNC), negative = inhibition is on record?
A: inactive: 13.8%

Q: For CNS(=O)(=O)c1cc(O)c2c(S(=O)(=O)NC)cccc2c1, which activity change (PNC), negative = inhibition is on record?
A: inconclusive: -37.4%

Q: For CCOc1cc(/C=C2\N=C(C)OC2=O)cc(Br)c1OCC(=O)OC, which activity change (PNC), negative = inhibition is on record?
A: inconclusive: -47%

Q: Which activity change (PNC), negative = inhibition does the source give for O=C(NCc1cccnc1)c1ccc(COc2ccccc2Br)o1 here?
A: inconclusive: -45.7%

Q: For O=C(c1ccccc1)N1CCN(C(=S)NCc2ccc3c(c2)OCO3)CC1, which activity change (PNC), negative = inhibition is on record?
A: inactive: 71.1%

Q: Which activity change (PNC), negative = inhibition does the source give for COC(=O)c1c(-c2ccc(Br)cc2)csc1NC(=O)Cc1ccc(OC)c(OC)c1 here?
A: inconclusive: -49.3%

Q: With CC1=NN(c2ccccc2)C(=O)C1(C)C as the compound, how does the activity change (PNC), negative = inhibition read?
A: inactive: 117%

Q: Which activity change (PNC), negative = inhibition does the source give for CCC1(C)Cc2nc3sc(C(=O)O)c(N)c3cc2CO1 (configuration not stated) here?
A: inactive: -4.37%

Q: With COc1cc(C(=O)NC(=S)Nc2cccc(-c3cc4ccccc4oc3=O)c2)cc(OC)c1OC as the compound, how does the activity change (PNC), negative = inhibition read?
A: inactive: -19.3%

Q: For CCOc1ccc2nc(-c3ccc(OC)c(OC)c3)cc(C(=O)O)c2c1, which activity change (PNC), negative = inhibition is on record?
A: inconclusive: -45.7%

Q: Which activity change (PNC), negative = inhibition does the source give for Cn1c2ccccc2c2nnc(SCc3ccc4nonc4c3)nc21 here?
A: inconclusive: -41.3%

Q: For O=C(COC(=O)C1CCC1)Nc1ccc(OC(F)F)cc1, which activity change (PNC), negative = inhibition is on record?
A: inconclusive: -64.7%

Q: With N#C/C(C(=O)c1ccccc1)=C1/CCCN1 as the compound, how does the activity change (PNC), negative = inhibition read?
A: inconclusive: -35.5%

Q: With Cc1ccc(S(=O)(=O)N2CCOCC2)cc1NC(=O)COC(=O)CNC(=O)c1ccc(Oc2ccccc2)cc1 as the compound, how does the activity change (PNC), negative = inhibition read?
A: inconclusive: -34.8%

Q: With Cc1cc(NC(=O)Cc2cn3ccsc3n2)n(-c2ccccc2)n1 as the compound, how does the activity change (PNC), negative = inhibition read?
A: inconclusive: -40%

Q: With OC(COc1ccc2ccccc2c1Br)Cn1ccnc1 (configuration not stated) as the compound, how does the activity change (PNC), negative = inhibition read?
A: inconclusive: -45%

Q: Which activity change (PNC), negative = inhibition does the source give for COCCNC(=O)c1ccc2c(c1)nc(C)n2-c1cc(OC)c(OC)c(OC)c1 here?
A: inactive: 62.5%

Q: Which activity change (PNC), negative = inhibition does the source give for COc1ccc2c(c1)Cc1sc(NC(=O)c3ccco3)nc1-2 here?
A: inactive: -14.3%

Q: Which activity change (PNC), negative = inhibition does the source give for COC(=O)c1ccc2nc(Nc3nc4c(F)cc(F)cc4s3)sc2c1 here?
A: active: -100%

Q: With COc1cc(/C=N/NC(=O)C(=O)NCc2cccnc2)cc(OC)c1OC as the compound, how does the activity change (PNC), negative = inhibition read?
A: inactive: 59.4%

Q: With Cc1cccc(OCC(=O)N/N=C/C=C/c2ccco2)c1 as the compound, how does the activity change (PNC), negative = inhibition read?
A: inactive: -9.75%

Q: With O=C(NCCOC(=O)c1ccncc1)c1ccccc1 as the compound, how does the activity change (PNC), negative = inhibition read?
A: inactive: -5.56%

Q: Which activity change (PNC), negative = inhibition does the source give for CCOC(=O)/C(=N/Nc1ccc(Cl)cc1)Sc1nnnn1-c1ccc(C)cc1 here?
A: inconclusive: -53.2%

Q: With Cc1ccc(Cn2nc(C)c(NC(=O)CCCn3nc(C)c([N+](=O)[O-])c3C)c2C)cc1 as the compound, how does the activity change (PNC), negative = inhibition read?
A: inconclusive: -36.2%

Q: Which activity change (PNC), negative = inhibition does the source give for CS(=O)(=O)Nc1ccc(C2=NN(S(C)(=O)=O)C(c3ccccc3)C2)cc1 (configuration not stated) here?
A: inactive: 33.1%

Q: For COc1ccc(-c2cc3n(n2)CCc2nc4ccccc4n2-3)cc1, which activity change (PNC), negative = inhibition is on record?
A: inconclusive: -38.1%

Q: For Cn1c2c(c(=O)n(C)c1=O)C(CC(=O)Nc1ccccc1)C(=O)N2 (configuration not stated), which activity change (PNC), negative = inhibition is on record?
A: inconclusive: -54.3%

Q: Which activity change (PNC), negative = inhibition does the source give for Cc1ccc(C(=O)/C=C/C(=O)O)cc1 here?
A: inactive: 7.03%

Q: Which activity change (PNC), negative = inhibition does the source give for CC1CN(S(=O)(=O)c2cccc(C(=O)OCC(=O)Nc3ccc4c(c3)OCO4)c2)CC(C)O1 (configuration not stated) here?
A: inactive: -1.74%

Q: With CCCCCCCCNC(=O)/C(C#N)=C/c1ccc(SC)cc1 as the compound, how does the activity change (PNC), negative = inhibition read?
A: inconclusive: -31.2%

Q: For OC1(c2cn(Cc3ccccc3)nn2)CCCCC1, which activity change (PNC), negative = inhibition is on record?
A: inconclusive: -41.4%

Q: For CC(=O)N1CCC(N(CCN2CCOCC2)C(=S)Nc2cccc(C)c2C)CC1, which activity change (PNC), negative = inhibition is on record?
A: inconclusive: -48.8%

Q: Which activity change (PNC), negative = inhibition does the source give for COc1ccc2nc(NC(=O)[C@@H]3CCCN3C(=O)c3cccs3)sc2c1 here?
A: inactive: 34.3%

Q: For Cc1ccc(C(C[N+](=O)[O-])c2c(-c3ccccc3O)[nH][nH]c2=O)cc1 (configuration not stated), which activity change (PNC), negative = inhibition is on record?
A: inactive: 46.8%

Q: Which activity change (PNC), negative = inhibition does the source give for Cc1c(C(Nc2ccccn2)c2ccccc2)c(=O)n(-c2ccccc2)n1C (configuration not stated) here?
A: active: -100%

Q: Which activity change (PNC), negative = inhibition does the source give for CCOC(=O)c1cnc(SCC(=O)c2ccc(C)cc2)nc1N here?
A: inactive: -1.52%

Q: Which activity change (PNC), negative = inhibition does the source give for Cc1ccc[n+](/C(C(=S)NCc2ccco2)=C(/[O-])c2ccccc2Cl)c1 here?
A: inactive: -5.45%

Q: Which activity change (PNC), negative = inhibition does the source give for Cc1nn2c(CN(C(=O)CN3CCOCC3)c3ccccc3)nnc2c2ccccc12 here?
A: inactive: -20.7%

Q: With O=C(NCCN1CCN(c2ccccc2)CC1)c1cccc(Br)c1 as the compound, how does the activity change (PNC), negative = inhibition read?
A: inconclusive: -50.2%

Q: For O=C(CSC1=NCCS1)Nc1ccnc2ccccc12, which activity change (PNC), negative = inhibition is on record?
A: inactive: -3.41%

Q: For C1=C(N2CCOCC2)/C(=C/c2nc3ccccc3[nH]2)CC1, which activity change (PNC), negative = inhibition is on record?
A: inconclusive: -74.9%

Q: For COc1ccc(NC(=S)NC(NC(=O)c2cccc(C)c2)C(Cl)(Cl)Cl)c([N+](=O)[O-])c1 (configuration not stated), which activity change (PNC), negative = inhibition is on record?
A: inactive: 24.8%
